Data as given in PubChem BioAssay AID504444 (National Center for Advancing Translational Sciences (NCATS), 2011).
Several values for one entry are separate records, joined by “and”; a condition that tells them apart may be missing. Equal entries are not always repeated. The campaign covered roughly 360,000 compounds. About 7,500 (2.1%) were called active. The inconclusive results got no clear call from the source; some entries with a clear call stand among them for comparison. Calls follow the shape of the dose curve; as a rule, active = well fitted inhibition curve with a large enough effect; inconclusive = small, poorly fitted or top-dose-only effect, or effect the other way; inactive = flat fitted curve, though single readings scatter. Where the call is inconclusive, the potency comes from a doubtful curve fit.

experiment: Nrf2 qHTS screen for inhibitors; conditions: A549 ARE-Fluc reporter, luciferase luminescence, 18-24 h; activity change, negative = inhibition: at 46 µM (top of the series); also: nearly all actives have a fitted effect of over 60% in size
How it was run: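 In this cell-based qHTS, ARE-driven firefly luciferase in A549 cells reports Nrf2 activity; the luminescent signal after BugLite lysis is the measured value, with a prior CellTiter-Fluor read for cell health.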
% is scaled to controls: 0 for no effect and ±100 for the full control effect; potency is read from the fitted curve at half-maximal effect.

SMILES | Potency | activity change, negative = inhibition
COc1ccc(C2CC(c3ccccc3)Oc3c(C)ccc(C)c32)cc1 (centres undefined) | inactive and inconclusive: 4.61 µM [activator, partial curve] | 
O=C(CSc1nc(-c2ccco2)cc(C(F)(F)F)n1)NC1CCCCCCC1 | inconclusive: 14.6 µM [falling, partial curve, poor fit] | 
c1ccc(CSCc2nc3ccccc3[nH]2)cc1 | inconclusive: 13 µM [activator, partial curve] | 
CCOC(=O)c1c(C)[nH]c(C)c1C(=O)CSc1nc2ccccc2c(=O)n1-c1ccc(F)cc1 | active: 23.1 µM | 
CCN1CCN(c2cc(N3CCc4ccccc4C3)c(F)cc2[N+](=O)[O-])CC1 | inconclusive: 32.6 µM [falling, single point] | 
Cc1cccc(C)c1NS(=O)(=O)c1ccc(NC(=O)c2ccc(Cl)c([N+](=O)[O-])c2)cc1 | inactive | 
COc1ccccc1NS(=O)(=O)c1cccc(C(=O)N/N=C(\C)c2ccc(-n3ccnc3)cc2)c1 | inconclusive: 29.1 µM [falling, single point] | 
Cc1cccc(NC(=S)NCCc2ccc(F)cc2)c1C | inconclusive: 18.4 µM [falling, partial curve, poor fit] | 
CCN(CC(=O)Nc1ccccc1C(F)(F)F)C(=O)c1cc(-c2cccs2)nn1-c1ccccc1 | inconclusive: 13 µM [falling, partial curve, poor fit] | 
CC(C)Oc1ccc(CNC(=O)c2cc3ccccn3n2)cc1 | inconclusive: 4.61 µM [falling, full curve, poor fit] | 
Cc1ccc2c(c1)cc(CN(Cc1ccco1)C(=O)COc1ccccc1)c1nnnn12 | inconclusive: 29.1 µM [falling, single point] | 
COc1ccc(CNC(=O)CN(Cc2ccco2)C(=O)CNS(=O)(=O)c2ccccc2)cc1 | inconclusive: 4.61 µM [falling, partial curve, poor fit] | 
COc1ccc(C(=O)NNC(=O)C(=O)Nc2ccc(C)cc2)cc1 | inactive | 
COc1cc(/C=N/NC(=O)c2cccnc2)ccc1OC(=O)c1ccco1 | inactive | 
Cc1ccc(C(=O)NCC(c2ccc(Cl)cc2)N2CCCCC2)cc1 (centres undefined) | inactive | 
CCOc1ccc(C(=O)N2CC(=O)Nc3ccc(C)cc3C2c2ccc(F)cc2)cc1OCC (centres undefined) |  | inactive: 7.05% [at 9.27 µM]
CC(C)NC(=O)COc1ccc(S(=O)(=O)N(C)Cc2ccccc2)cc1 | inconclusive: 29.1 µM [falling, single point] | 
COc1ccc(OC)c(NC(=O)CCN2CCCCCC2)c1 | inconclusive: 16.4 µM [activator, partial curve, poor fit] | 
CS(=O)(=O)CCC(C(=O)OCc1ccc(Br)cc1)N1C(=O)c2ccccc2C1=O (centres undefined) | inconclusive: 32.6 µM [activator, single point] | 
CCOc1ccccc1C(=O)NCCCCNC(=O)c1ccccc1OCC | inconclusive: 16.4 µM [falling, partial curve, poor fit] | 
COc1ccc(NC(=O)c2noc3c2CCCCC3)cc1 | inconclusive: 2.59 µM [activator, full curve] | 
COc1cccc(CNC(=O)c2cccc(N3CCCS3(=O)=O)c2)c1 | inactive | 

SMILES | Potency | activity change, negative = inhibition
CCn1nccc1C(=O)Nc1ccc(S(=O)(=O)NC23CC4CC(CC(C4)C2)C3)cc1 | inconclusive: 25.9 µM [falling, single point] | 
Cc1ccc(NC(=O)C2=CN3CCS(=O)(=O)N=C3C=C2)cc1 | inconclusive: 7.31 µM [activator, partial curve, poor fit] | 
Cc1ccc(CNc2ccc(N3CCOCC3)cc2)cc1 | inconclusive: 10.3 µM [activator, partial curve] | 
COC(=O)c1ccc(CNC(=O)Cn2cnc3c(SC)nc(N)nc32)cc1 | active: 23.1 µM | 
Cc1ccc2nc(-c3ccc(NC(=O)CN4C(=O)NC(C)(c5ccc(OC(F)F)cc5)C4=O)cc3)sc2c1 (centres undefined) | inactive | 
Cc1cc(Nc2ccccc2C)c2cccc(C)c2n1 | inconclusive: 4.61 µM [falling, single point] | 
COc1ccc(N2C(=O)c3ccccc3NC2c2ccc(OC)c(COc3ccccc3F)c2)cc1 (centres undefined) | inconclusive: 4.11 µM [activator, full curve, poor fit] | 
CC1(C)Cc2c(sc3nc(-c4ccccc4Cl)n(N)c(=O)c23)CO1 | inconclusive: 29.1 µM [falling, single point] | 
O=c1c(Br)c(NCc2ccccc2)cnn1-c1ccc(F)cc1 | inconclusive: 23.1 µM [activator, partial curve] | 
Cc1cc(S(=O)(=O)N2CCOCC2)ccc1OCC(=O)Nc1ccc(F)c(Cl)c1 | inactive | 
O=C1N[C@@H](Cc2ccccc2)C(=O)N2[C@@H]3N(S(=O)(=O)c4ccc(F)cc4)c4ccccc4[C@]3(Br)C[C@@H]12 | inconclusive: 29.1 µM [falling, single point] | 
COc1cccc2cc(C(C)N(CCCN3CCOCC3)C(=S)Nc3ccc(C)cc3)oc12 (centres undefined) | inconclusive: 29.1 µM [activator, single point] | 
O=C(N/N=C/c1cn(-c2ccccc2)nc1-c1ccc2c(c1)OCCO2)c1ccncc1 | inconclusive: 4.61 µM [activator, full curve, poor fit] | 
CCOc1ccc(S(=O)(=O)Nc2cccc(C(=O)N(C)Cc3cccc(OC)c3OC)c2)cc1 | inactive | 
CCOC(=O)C(C)N1C(=O)S/C(=C\c2ccc(-c3ccccc3C(=O)O)o2)C1=O (centres undefined) | inactive | 
Cc1ccc(-c2nc3ccccn3c2NCc2ccc3c(c2)OCO3)cc1 | inactive | 
CC(C)(C)C1CCc2onc(C(=O)Nc3ccc(F)cc3F)c2C1 (centres undefined) | inconclusive: 8.2 µM [falling, partial curve, poor fit] | 
CCCn1c(=O)sc2cc(NC(=O)c3ccccc3Cl)ccc21 | inconclusive: 20.6 µM [falling, single point] | 
O=C(NC(=S)Nc1ccc(S(=O)(=O)Nc2nccs2)cc1)c1cccnc1 | inactive | 
S=C(NCc1ccccc1)Nc1nccs1 | inconclusive: 7.31 µM [activator, partial curve, poor fit] | 
CCOc1ccc2nc(NS(=O)(=O)c3cccs3)sc2c1 | inconclusive: 32.6 µM [activator, partial curve, poor fit] | 
C=CCNC(=O)c1ccc(-n2cccc2)cc1 | inconclusive: 4.11 µM [activator, full curve, poor fit] | 

Retrieved by compound from the list above, two records:
SMILES | Potency | activity change, negative = inhibition
O=C(N/N=C/c1cn(-c2ccccc2)nc1-c1ccc2c(c1)OCCO2)c1ccncc1 | inconclusive: 4.61 µM [activator, full curve, poor fit] | 
Cc1ccc(CNc2ccc(N3CCOCC3)cc2)cc1 | inconclusive: 10.3 µM [activator, partial curve] | 

The listing continues:

SMILES | Potency | activity change, negative = inhibition
c1ccc(CN2CCN(c3nc4ccccc4s3)CC2)cc1 | inconclusive: 9.2 µM [activator, partial curve] | 
Cc1cccc(C)c1NC(=O)CSc1nnc(Cn2nnc(-c3ccccc3)n2)n1-c1ccccc1 | inconclusive: 32.6 µM [falling, single point] | 
N#Cc1c(-c2ccc(Cl)cc2)cc(-c2ccccc2)nc1SCC(=O)O | inconclusive: 16.4 µM [falling, partial curve, poor fit] | 
COC(=O)c1ccc(NC(=O)c2cnn(-c3ccc(Cl)cc3)c2C2CCN(C(=O)OC(C)(C)C)CC2)cc1 | inconclusive: 18.4 µM [falling, single point] | 
CC(C)(C)OC(=O)N(CCc1ccccc1)Cc1cccc(OCc2cccc(NC(=O)C3CCC3)c2)c1 | inconclusive: 23.1 µM [falling, single point] | 
Clc1ccc(-c2nnc3sc(-c4ccc(Br)o4)nn23)c(Cl)c1 | inconclusive: 29.1 µM [falling, single point] | 
NC(=O)c1cccc(NC(=O)CCCCC(=O)Nc2cccc(C(N)=O)c2)c1 | inconclusive: 0.0184 µM [falling, full curve, poor fit] | 
COC(=O)c1sc(N)c(C(=O)OC)c1COC(=O)c1c(C)noc1C | inconclusive: 0.0731 µM [falling, full curve, poor fit] | 
COc1ccccc1CSc1ncc(-c2ccc([N+](=O)[O-])cc2)[nH]1 | inconclusive: 29.1 µM [falling, partial curve, poor fit] | 
CCCCNC(=S)N(C)/N=C/c1ccc(OCC(=O)Nc2ccc(OC)cc2)c(OC)c1 | inconclusive: 20.6 µM [falling, partial curve, poor fit] | 
CC1CCc2c(sc(NC(=O)CN3CCN(C(=O)c4ccco4)CC3)c2C#N)C1 (centres undefined) | inconclusive: 29.1 µM [falling, single point] | 
CCN(CC)C(=O)c1c(NC(=O)c2ccccc2F)sc2c1CCC(C(C)(C)C)C2 (centres undefined) | inconclusive: 23.1 µM [falling, single point] | 
COc1ccccc1NC(=O)C/C(C)=N/NC(=O)c1ccccn1 | inconclusive: 16.4 µM [activator, partial curve, poor fit] | 
CC/C(=N/Nc1ccccc1)c1cnnc(-c2ccccc2)n1 | inactive | 
CC1CCN(S(=O)(=O)c2ccc(NC(=O)Cc3ccc(S(=O)(=O)N4CCOCC4)s3)cc2)CC1 | inconclusive: 18.4 µM [falling, single point] | 
COC(=O)c1ccc(CSc2nc(N)cc(N)n2)cc1 | inconclusive: 20.6 µM [activator, single point] | 
Cc1ccc(/C=C/C(=O)c2ccccc(=O)c2O)cc1C | active: 20.6 µM | 
COc1ccc(Br)cc1CN(C)C(=O)C1CC(=O)N(C2CCCC2)C1 (centres undefined) | inconclusive: 29.1 µM [falling, single point] | 
N#CN1CCC(NC(=O)c2ccc(C(F)(F)F)cc2)CC1 | inactive | 
CCOC(=O)C1=C(CN2CCC(C)CC2)NC(=O)NC1c1ccc(OC(C)C)cc1 (centres undefined) | inconclusive: 14.6 µM [falling, partial curve, poor fit] | 
